This passage reports AC50 results from PubChem BioAssay AID1487 (National Center for Advancing Translational Sciences (NCATS), 2009).

The list shows a part of the results. Shown are side measurements of this screen, not its main read-out; they come without a call. Most of these compounds were active or inconclusive in the main read-out, so they are no random draw. Words in brackets tell the shape of the fitted curve; partial curves, single points and poor fits give uncertain potencies.

This test can be described thus: qHTS Assay for Modulators of Lamin A Splicing. To be noted: HeLa LMNA splicing GFP/RFP minigene ratio, 48 h. The procedure, abridged:
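S3 HeLa stable clones carrying a lamin A-EGFP splicing minigene plus DsRed2 were seeded at 600 cells/well in Opti-MEM with 2% FBS, pin-dosed and incubated 48 h at 37°C. Acumen cytometry (488 nm) gave the GFP/RFP total-intensity ratio.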
On the technique in general: In qHTS, concentration-response curves come from the screen itself.

Setting [1] is: measured here: RFP viability control channel.
[2] abbreviates: measured here: GFP splicing reporter channel.

With `Cc1ccc(S(=O)(=O)Nc2ccccc2CNc2c(C)n(C)n(-c3ccccc3)c2=O)cc1`, the AC50 (commonly the concentration at which the activity in the assay is half-maximal) under setting [1] was 35.5 µM [rising, single point].

With `O=C(CCl)Nc1cc(-c2ccccc2)nn1-c1ccccc1`, the AC50 runs as follows: under setting [2], 35.5 µM [falling, single point]; under setting [1], 35.5 µM [falling, single point].

Consider `CC(C)c1ccccc1OCC(=O)NN1C(=O)c2ccccc2C1=O`, for which, under setting [1], the AC50 is 0.708 µM [falling, full curve, poor fit].

Consider `COc1ccc2cc(CN(CCO)C(=O)c3ccc(Br)cc3)c(=O)[nH]c2c1`, for which the AC50 under setting [1] was 35.5 µM [rising, single point].

Regarding `Cc1cc(O)c(C(C)C)cc1NC(=O)c1ccc(Cl)cc1`, the AC50 under setting [1] is 6.31 µM [rising, partial curve, poor fit].

Take `S=C(NCc1ccco1)Nc1ccc(Cl)c(Cl)c1`: the AC50 is 2 µM [rising, partial curve] under setting [2] and 15.8 µM [rising, partial curve] under setting [1].

Regarding `Cc1ccc2nc(Cl)nc(-c3ccccc3)c2c1`, the AC50 under setting [2] is 35.5 µM [falling, single point] and the AC50 under setting [1] is 22.4 µM [falling, single point].

As to `O=C(CCSCc1ccccc1Cl)N1CCN(c2ccccn2)CC1`, the AC50 is 11.2 µM [rising, partial curve, poor fit] under setting [2] and 14.1 µM [rising, single point] under setting [1].

With `COc1ccc2c(c1OC)C(=O)OC2`, the AC50 under setting [2] is 0.00316 µM [rising, full curve, poor fit].

As for `Cc1ccccc1Nc1ncnc2c1cnn2-c1ccccc1`, the AC50 under setting [1] was 12.6 µM [rising, partial curve].

As for `O=C(Nc1nc(-c2cccs2)cs1)c1ccc(S(=O)(=O)N2CCCC2)cc1`, under setting [1], the AC50 was 7.94 µM [rising, partial curve].

Take `O=C(c1ccc2ccccc2n1)N1CCN(c2ccccc2O)CC1`: the AC50 under setting [2] is 3.98 µM [falling, single point].

Regarding `CS(=O)c1nc(-c2ccc(Br)cc2)cc(-c2ccccc2)c1C#N` (stereo not given), the AC50 is, setting by setting: under setting [2], 35.5 µM [falling, single point]; under setting [1], 35.5 µM [falling, single point].

Regarding `Cc1sc2ncnc(NCC3COc4ccccc4O3)c2c1C` (stereo not given), the AC50 under setting [2] is 0.398 µM [rising, full curve] and the AC50 under setting [1] was 0.708 µM [rising, full curve].

`O=C1CSc2ccc(C(=O)Nc3cccc(S(=O)(=O)Nc4ccc(Br)cc4)c3)cc2N1`: the AC50 was 15.8 µM [falling, single point] under setting [2] and 22.4 µM [falling, partial curve, poor fit] under setting [1].

As for `COc1ccc2c(c1)O[C@H](c1ccc3c(c1)OCO3)[C@@H](OC(=O)N[C@H]1CCCc3ccccc31)C2=O`, under setting [1], the AC50 was 10 µM [rising, partial curve].

`Cc1ccc(-n2[nH]c(C)c(/C=N/n3c(C)nc4ccccc4c3=O)c2=O)cc1`: the AC50 is 0.398 µM [rising, partial curve, poor fit] under setting [2] and 17.8 µM [rising, partial curve] under setting [1].

With `C/C(=N\NC(=O)Cc1csc(N2CCOCC2)n1)c1ccc(Cl)c(Cl)c1`, the AC50 was 35.5 µM [falling, single point] under setting [2] and 20 µM [falling, partial curve, poor fit] under setting [1].

Take `Cc1ccc(-c2csc(NC(=O)C3CC(=O)N(Cc4ccco4)C3)n2)cc1` (stereo not given): under setting [1], the AC50 was 14.1 µM [rising, single point].

As to `COc1ccc(NC(=O)c2oc3ccc(S(=O)(=O)N4CCOCC4)cc3c2C)c(OC)c1`, the AC50 under setting [2] is 35.5 µM [falling, partial curve, poor fit].

With `CC(Oc1ccccc1)C(=O)Nc1ccc(C(=O)OCc2cc(=O)n3nc(C(C)C)sc3n2)cc1` (stereo not given), under setting [1], the AC50 is 1.78 µM [rising, full curve].

As to `Cc1c(C(=O)N2CCc3ccccc3C2)oc2ccc(S(=O)(=O)N3CC(C)CC(C)C3)cc12` (stereo not given), the AC50 under setting [1] was 3.16 µM [rising, full curve].

As to `CCOC(=O)c1c(C)[nH]c2c1-c1ccccc1C(=O)C2=O`, the AC50 is 2.82 µM [falling, full curve] under setting [2] and 3.16 µM [falling, full curve] under setting [1].

Turning to `Cc1nc2c(C(=O)N3CCCCC3)cnn2c(C)c1Cc1ccccc1F`, the AC50 under setting [1] was 14.1 µM [rising, single point].

In the case of `Clc1ccccc1Sc1ccc(-c2ccccn2)s1`, under setting [1], the AC50 is 8.91 µM [falling, partial curve, poor fit].

With `CCN(Cc1ccncc1)S(=O)(=O)c1ccc(C(C)=O)cc1`, the AC50 under setting [2] was 0.708 µM [rising, full curve, poor fit].

As for `COc1ccc(OC)c2c(C)cc(N3CCN(C(=O)c4ccc(F)cc4)CC3)nc12`, the half-maximal activity concentration (AC50) runs as follows: under setting [2], 6.31 µM [rising, partial curve]; under setting [1], 11.2 µM [rising, partial curve].

On to `COc1ccc(CC(=O)NNc2ncnc3c2cnn3C)cc1OC`, for which the AC50 was 11.2 µM [rising, partial curve] under setting [2] and 11.2 µM [rising, single point] under setting [1].

Turning to `O=c1c2ccccc2nc2n1C1(CCCCC1)Cc1ccccc1-2`, under setting [1], the AC50 is 17.8 µM [rising, single point].

As for `COc1ccc(-c2ccc(NS(=O)(=O)c3ccc(NC(C)=O)cc3)cc2)nn1`, the AC50 under setting [1] is 0.158 µM [rising, partial curve].

As to `COc1ccc2c(c1)O[C@@H](c1cccc(C(F)(F)F)c1)[C@H](O)C2=O`, the AC50 under setting [1] is 22.4 µM [rising, partial curve].

As for `O=C(CSc1nnc(-c2ccccn2)n1Cc1ccco1)c1ccc(-c2ccccc2)cc1`, under setting [1], the AC50 was 15.8 µM [rising, single point].

Regarding `Cc1cc(OCC(=O)NC(C)C)cc(C)c1Br`, the AC50 is, setting by setting: under setting [2], 35.5 µM [rising, single point]; under setting [1], 35.5 µM [rising, single point].

For the compound `Cc1c(Cl)cccc1-n1ncc(C(=O)NCCN2CCN(C)CC2)c1C1CCN(C(=O)OC(C)(C)C)CC1`, the AC50 under setting [2] was 0.0141 µM [falling, full curve, poor fit] and the half-maximal activity concentration (AC50) under setting [1] is 0.0112 µM [falling, full curve, poor fit].

As for `CC(=O)O[C@H]1C(=O)[C@@]2(C)C([C@H](OC(=O)c3ccccc3)[C@]3(O)C[C@H](OC(=O)[C@H](O)[C@@H](NC(=O)c4ccccc4)c4ccccc4)C(C)=C1C3(C)C)[C@]1(OC(C)=O)CO[C@@H]1C[C@@H]2O` (stereo not given in full), the AC50 is 0.0282 µM [falling, full curve] under setting [2] and 0.00178 µM [falling, full curve] under setting [1].
